# Reference: paper PMC7862700
# This is a selection; strong and weak results do not stand in their true shares. At the low end of the ranking the order means little.
# Target: T1, SPIC (UniProt Q8N5J4)
# T1 sequence: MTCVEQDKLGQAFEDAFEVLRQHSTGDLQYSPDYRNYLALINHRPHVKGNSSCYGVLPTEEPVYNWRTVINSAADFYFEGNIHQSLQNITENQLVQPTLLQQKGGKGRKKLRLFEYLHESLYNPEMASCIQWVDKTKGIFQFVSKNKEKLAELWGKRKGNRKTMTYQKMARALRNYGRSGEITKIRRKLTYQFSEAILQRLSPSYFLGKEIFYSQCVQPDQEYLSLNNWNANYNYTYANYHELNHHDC
# Assay: DAPPL (digital affinity profiling via proximity ligation, sequencing)
# Conditions: 10 mM Tris-HCl pH 7.5, 50 mM NaCl, 1 mM DTT, 4% glycerol, room temperature, 30 min; GST-TFs on glutathione beads, 16-mer random dsDNA library, 0.1% …; high values mean tight binding; double strand, one strand shown; scale: fold enrichment (6-mer frequency, TF over GST control)
row,Sequence,binding signal
1,CACCTT,1.2
2,CGACGC,1.09
3,TTATCC,1.51
4,TGACAT,1.07
5,TAGCAA,1.14
6,CTGGGC,0.903
7,ATAAGA,1.03
8,AAGTTA,1.27
9,TCGCAT,1.02
10,TGATAC,0.977
11,TTGCAG,1.05
12,CTATGC,1.54
13,TATGCT,1.6
14,CAAGCA,0.953
15,GTTGAC,0.967
16,TGATGA,1.14
17,CCCAAG,0.968
18,AATTTC,1.59
19,CCACTC,1.27
20,GCACAT,1.14

# In a second layout: results already given.
row | Sequence | binding signal
5 | TAGCAA | 1.14
6 | CTGGGC | 0.903
7 | ATAAGA | 1.03
8 | AAGTTA | 1.27
9 | TCGCAT | 1.02
10 | TGATAC | 0.977
11 | TTGCAG | 1.05
12 | CTATGC | 1.54
13 | TATGCT | 1.6
14 | CAAGCA | 0.953
15 | GTTGAC | 0.967

# (continued)

row,Sequence,binding signal
1,AGGAAC,1.23
2,AAATCA,1.18
3,ACACTC,1.01
4,TCCTGG,1.54
5,CGGTAT,1.08
6,TTATTC,1.45
7,GACCGG,0.997
8,TTGCTT,1.38
9,GTAGCA,1.16
10,CCGACT,1.53
11,TGTCCC,1.26
12,AGCATC,0.972
13,GTTTTA,0.912
14,GTTATG,1.23
15,TAACAG,0.977
16,CCGCTT,1.83
17,AAGACT,0.998
18,CCGGCC,1.32
19,ACTATT,1.44
